The supplement of paper PMC10849652
The list shows a part of the results. Residues, ends and D or L forms follow the SMILES beside them. *: point of attachment. Cbz = O=C(OCc1ccccc1)*

Sequences of proteins named here, by UniProt entry; tags and fusion partners are left off. A change or cut given only in a name is not applied to a line headed by its entry.
UniProt P29034: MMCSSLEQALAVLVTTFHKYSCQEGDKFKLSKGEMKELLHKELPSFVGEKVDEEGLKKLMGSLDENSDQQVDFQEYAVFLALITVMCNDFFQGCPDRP
UniProt Q96BY9: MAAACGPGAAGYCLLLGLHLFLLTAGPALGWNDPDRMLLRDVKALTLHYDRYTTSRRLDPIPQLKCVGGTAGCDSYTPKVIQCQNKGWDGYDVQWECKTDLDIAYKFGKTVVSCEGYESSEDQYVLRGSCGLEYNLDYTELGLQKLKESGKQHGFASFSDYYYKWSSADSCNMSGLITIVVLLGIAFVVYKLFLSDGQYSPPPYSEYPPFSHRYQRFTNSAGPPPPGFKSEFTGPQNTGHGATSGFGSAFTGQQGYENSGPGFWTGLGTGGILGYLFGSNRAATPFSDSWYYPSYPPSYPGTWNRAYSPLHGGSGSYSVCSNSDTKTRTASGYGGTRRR
UniProt O75556: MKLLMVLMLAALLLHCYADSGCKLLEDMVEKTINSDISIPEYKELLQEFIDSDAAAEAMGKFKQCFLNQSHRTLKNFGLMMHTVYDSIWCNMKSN
UniProt P35499, whole entry, looked up: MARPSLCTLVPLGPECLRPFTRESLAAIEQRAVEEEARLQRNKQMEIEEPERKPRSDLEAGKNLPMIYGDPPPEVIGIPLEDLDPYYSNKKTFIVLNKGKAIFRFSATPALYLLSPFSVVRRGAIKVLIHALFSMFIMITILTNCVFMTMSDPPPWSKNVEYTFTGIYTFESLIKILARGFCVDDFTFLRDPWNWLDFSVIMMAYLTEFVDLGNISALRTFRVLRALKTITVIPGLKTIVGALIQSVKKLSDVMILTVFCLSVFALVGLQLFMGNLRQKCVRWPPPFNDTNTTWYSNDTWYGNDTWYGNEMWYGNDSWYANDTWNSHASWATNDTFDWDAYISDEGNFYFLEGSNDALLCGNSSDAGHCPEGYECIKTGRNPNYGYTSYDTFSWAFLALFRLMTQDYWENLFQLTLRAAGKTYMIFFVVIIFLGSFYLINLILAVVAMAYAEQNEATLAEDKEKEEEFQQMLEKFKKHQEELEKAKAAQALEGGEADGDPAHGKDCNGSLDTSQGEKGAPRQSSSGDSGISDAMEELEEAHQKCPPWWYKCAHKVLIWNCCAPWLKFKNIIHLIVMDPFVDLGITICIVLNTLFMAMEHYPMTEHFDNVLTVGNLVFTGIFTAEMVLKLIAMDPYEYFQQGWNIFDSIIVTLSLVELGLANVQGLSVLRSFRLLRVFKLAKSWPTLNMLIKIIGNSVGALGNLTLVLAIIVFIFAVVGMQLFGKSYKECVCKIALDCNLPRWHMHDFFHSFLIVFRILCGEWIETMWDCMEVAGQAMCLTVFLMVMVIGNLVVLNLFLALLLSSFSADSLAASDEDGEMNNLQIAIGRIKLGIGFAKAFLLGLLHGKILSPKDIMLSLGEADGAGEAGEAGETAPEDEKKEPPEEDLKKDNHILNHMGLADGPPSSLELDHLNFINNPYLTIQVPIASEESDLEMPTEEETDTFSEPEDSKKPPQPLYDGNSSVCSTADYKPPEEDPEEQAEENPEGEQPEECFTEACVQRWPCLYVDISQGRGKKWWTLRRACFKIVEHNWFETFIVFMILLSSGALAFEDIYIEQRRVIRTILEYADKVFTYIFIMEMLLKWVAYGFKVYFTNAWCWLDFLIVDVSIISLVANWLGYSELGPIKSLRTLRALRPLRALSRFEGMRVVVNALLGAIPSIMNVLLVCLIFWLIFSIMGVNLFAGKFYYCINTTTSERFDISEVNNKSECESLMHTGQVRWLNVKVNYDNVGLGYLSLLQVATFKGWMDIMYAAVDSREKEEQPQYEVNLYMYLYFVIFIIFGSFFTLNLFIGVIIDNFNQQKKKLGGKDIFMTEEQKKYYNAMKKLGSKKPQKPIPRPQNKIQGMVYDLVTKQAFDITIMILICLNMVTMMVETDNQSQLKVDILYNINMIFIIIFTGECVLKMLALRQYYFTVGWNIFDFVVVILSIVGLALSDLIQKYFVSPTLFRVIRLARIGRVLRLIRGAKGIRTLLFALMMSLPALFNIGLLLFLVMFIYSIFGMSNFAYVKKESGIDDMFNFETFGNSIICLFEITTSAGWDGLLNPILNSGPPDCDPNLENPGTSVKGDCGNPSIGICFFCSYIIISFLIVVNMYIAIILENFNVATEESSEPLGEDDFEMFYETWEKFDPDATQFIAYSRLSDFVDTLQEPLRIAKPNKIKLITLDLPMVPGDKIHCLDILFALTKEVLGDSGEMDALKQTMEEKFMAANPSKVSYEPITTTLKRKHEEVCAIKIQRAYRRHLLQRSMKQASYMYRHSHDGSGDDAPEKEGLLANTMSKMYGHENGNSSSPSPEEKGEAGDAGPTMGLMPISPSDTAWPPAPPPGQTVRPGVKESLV
UniProt Q92622: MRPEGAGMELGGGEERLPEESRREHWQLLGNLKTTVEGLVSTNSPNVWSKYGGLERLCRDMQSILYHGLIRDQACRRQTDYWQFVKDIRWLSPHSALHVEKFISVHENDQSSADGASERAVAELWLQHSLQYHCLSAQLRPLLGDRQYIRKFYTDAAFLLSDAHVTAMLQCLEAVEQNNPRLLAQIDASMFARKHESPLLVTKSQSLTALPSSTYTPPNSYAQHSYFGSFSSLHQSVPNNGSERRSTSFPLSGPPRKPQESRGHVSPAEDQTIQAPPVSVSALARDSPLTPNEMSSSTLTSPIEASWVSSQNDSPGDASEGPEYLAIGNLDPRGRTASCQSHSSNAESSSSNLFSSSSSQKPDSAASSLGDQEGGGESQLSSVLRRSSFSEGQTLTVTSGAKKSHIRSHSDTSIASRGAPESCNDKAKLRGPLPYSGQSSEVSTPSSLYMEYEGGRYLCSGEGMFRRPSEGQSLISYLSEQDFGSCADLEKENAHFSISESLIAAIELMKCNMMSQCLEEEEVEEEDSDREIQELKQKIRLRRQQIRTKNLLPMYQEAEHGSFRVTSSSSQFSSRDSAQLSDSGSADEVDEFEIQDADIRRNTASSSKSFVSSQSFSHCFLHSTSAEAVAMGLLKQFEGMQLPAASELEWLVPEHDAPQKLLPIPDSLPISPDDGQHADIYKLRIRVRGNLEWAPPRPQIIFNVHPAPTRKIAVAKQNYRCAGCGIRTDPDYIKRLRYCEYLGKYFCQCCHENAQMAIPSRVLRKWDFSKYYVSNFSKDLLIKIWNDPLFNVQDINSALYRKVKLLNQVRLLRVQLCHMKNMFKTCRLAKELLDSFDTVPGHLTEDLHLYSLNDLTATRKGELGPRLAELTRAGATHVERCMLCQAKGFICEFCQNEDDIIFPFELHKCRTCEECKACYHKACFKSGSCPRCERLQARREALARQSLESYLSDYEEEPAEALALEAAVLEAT
UniProt Q9Y3V2: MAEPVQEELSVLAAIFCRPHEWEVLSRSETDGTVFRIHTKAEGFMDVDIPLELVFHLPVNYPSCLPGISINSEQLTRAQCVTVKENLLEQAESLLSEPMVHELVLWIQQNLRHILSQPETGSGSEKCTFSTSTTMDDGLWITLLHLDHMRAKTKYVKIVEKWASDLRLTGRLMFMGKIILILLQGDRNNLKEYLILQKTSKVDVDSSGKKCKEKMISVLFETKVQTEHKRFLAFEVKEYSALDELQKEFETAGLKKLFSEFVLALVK
UniProt O75845: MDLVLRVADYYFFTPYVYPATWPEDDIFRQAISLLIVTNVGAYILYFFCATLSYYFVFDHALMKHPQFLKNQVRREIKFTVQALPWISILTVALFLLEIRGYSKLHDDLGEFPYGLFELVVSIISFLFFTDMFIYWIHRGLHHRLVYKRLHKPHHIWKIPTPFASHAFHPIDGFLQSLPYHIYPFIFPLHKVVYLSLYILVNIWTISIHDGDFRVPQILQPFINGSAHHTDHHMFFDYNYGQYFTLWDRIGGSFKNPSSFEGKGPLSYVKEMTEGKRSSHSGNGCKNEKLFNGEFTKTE
UniProt O15127: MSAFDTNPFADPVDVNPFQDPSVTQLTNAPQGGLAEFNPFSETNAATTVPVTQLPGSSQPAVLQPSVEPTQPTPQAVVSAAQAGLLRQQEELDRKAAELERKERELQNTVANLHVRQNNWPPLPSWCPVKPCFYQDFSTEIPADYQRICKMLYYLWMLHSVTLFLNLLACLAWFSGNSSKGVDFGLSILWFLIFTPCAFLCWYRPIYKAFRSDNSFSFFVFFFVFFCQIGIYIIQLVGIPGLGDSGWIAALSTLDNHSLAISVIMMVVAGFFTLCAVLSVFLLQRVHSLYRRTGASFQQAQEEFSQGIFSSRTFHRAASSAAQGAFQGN
UniProt Q9UIL1: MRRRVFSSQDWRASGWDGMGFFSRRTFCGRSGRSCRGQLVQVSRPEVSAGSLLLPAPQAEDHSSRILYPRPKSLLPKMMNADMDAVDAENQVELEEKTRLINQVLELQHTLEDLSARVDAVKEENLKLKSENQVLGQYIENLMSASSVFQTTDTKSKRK
UniProt Q9Y2B1: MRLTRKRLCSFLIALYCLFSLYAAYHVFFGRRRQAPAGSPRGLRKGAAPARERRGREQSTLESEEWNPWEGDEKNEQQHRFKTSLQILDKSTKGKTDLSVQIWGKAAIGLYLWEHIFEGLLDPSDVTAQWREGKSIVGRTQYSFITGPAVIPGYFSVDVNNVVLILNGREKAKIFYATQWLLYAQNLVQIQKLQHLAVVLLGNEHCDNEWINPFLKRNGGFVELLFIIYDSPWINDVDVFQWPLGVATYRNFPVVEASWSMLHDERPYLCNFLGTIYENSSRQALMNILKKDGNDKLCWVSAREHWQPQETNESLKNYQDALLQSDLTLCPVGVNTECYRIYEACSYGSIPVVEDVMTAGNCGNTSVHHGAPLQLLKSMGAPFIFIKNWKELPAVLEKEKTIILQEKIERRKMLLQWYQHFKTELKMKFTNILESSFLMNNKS
UniProt Q9H4B6: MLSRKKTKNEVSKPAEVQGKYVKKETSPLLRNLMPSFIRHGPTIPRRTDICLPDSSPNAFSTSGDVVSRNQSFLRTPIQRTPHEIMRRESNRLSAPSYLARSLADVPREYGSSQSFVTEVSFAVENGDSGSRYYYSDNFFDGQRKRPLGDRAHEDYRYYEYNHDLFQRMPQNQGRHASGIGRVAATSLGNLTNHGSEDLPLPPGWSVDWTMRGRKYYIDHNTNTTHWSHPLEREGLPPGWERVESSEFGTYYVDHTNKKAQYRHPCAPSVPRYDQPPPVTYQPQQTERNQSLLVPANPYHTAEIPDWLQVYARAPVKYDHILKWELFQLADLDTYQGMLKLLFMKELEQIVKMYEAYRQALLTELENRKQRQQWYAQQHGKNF
UniProt Q9NRG7: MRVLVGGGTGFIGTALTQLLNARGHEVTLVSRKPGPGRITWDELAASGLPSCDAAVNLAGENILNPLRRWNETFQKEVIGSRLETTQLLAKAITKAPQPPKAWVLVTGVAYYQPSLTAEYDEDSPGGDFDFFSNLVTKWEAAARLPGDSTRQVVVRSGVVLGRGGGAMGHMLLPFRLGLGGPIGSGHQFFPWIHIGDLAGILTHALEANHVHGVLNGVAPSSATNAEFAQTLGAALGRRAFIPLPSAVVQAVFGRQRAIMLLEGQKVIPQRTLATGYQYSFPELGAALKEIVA
UniProt O00560: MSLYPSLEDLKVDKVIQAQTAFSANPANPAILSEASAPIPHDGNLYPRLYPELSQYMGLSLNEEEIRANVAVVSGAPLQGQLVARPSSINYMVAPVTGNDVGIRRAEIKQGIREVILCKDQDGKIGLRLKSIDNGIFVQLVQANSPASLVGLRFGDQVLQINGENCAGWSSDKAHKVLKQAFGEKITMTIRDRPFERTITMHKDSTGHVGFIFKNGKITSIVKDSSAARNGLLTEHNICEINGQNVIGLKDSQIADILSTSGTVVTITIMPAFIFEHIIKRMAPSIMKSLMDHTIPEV

How the values were obtained:
Assay in all cases: log2 fold change, soluble protein after heating vs DMSO (PISA); higher = thermal stabilisation; K562 cells, 10 uM, 30 min; active = over 0.2 and 3.5 SD of the protein, either way, in both replicates (recomputed)
[1] = compound: C=CC(=O)N1CCC[C@@H](n2nc(-c3ccc(Oc4ccccc4)cc3)c3c(N)ncnc32)C1 [ibrutinib]
How it was run: (§1)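 For each measurement, 10 μM compound was applied for 30 min to K562 cells at 2×10^6 cells/mL. Aliquots were heated for 3 min across 48°C-58°C, pooled, and extracted in PBS with 0.5% NP-40 at 4°C; the supernatant after 21,000xg for 90 min was soluble protein. This was quantified by TMTpro 16plex LC-MS/MS with channel sums equalised, and thermal stability was reported relative to control samples from duplicates, on a log2 fold-change scale.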

[2] = compound: CC(=O)c1cnc2ccc(-c3cc(Cl)c(O)c(Cl)c3)nc2c1N[C@H]1CC[C@H](CN(C)C)CC1
How it was run: as §1

[3] = compound: CC(C)C1=C2N=C(C=C(N2N=C1)NCC3=CC=CC=C3)NCCCCCCN
How it was run: as §1

[4] = compound: CC1=C(C(CC(=O)N1)C2=CC=C(C=C2)C(F)(F)F)C(=O)NC3=C(C=C4C(=C3)C=NN4)F
How it was run: as §1

[5] = compound: CC1=C(C2=C(C=C1)C(=O)C3=CC=CC=C3N2CCCN)C
How it was run: as §1

[6] = compound: CC1=CC=C(C=C1)SC2=C3C=C(SC3=CN=C2)C(=O)N
How it was run: as §1

[7] = compound: CCCS(=O)(=O)Nc1ccc(F)c(C(=O)c2c[nH]c3ncc(-c4ccc(Cl)cc4)cc23)c1F [vemurafenib]
How it was run: as §1

[8] = compound: CCCS(=O)(=O)Nc1ccc(F)c(C(=O)c2c[nH]c3ncc(Cl)cc23)c1F
How it was run: as §1

[9] = compound: CCCc1cc(C)[nH]c(=O)c1CNC(=O)c1cc(-c2ccnc(N3CCN(C)CC3)c2)cc2c1cnn2C(C)C
How it was run: as §1

[10] = compound: CCN(CC)Cc1ccc2cc(COC(=O)Nc3ccc(C(=O)NO)cc3)ccc2c1 [givinostat]
How it was run: as §1

[11] = compound: CCN(CCCOc1ccc2c(Nc3cc(CC(=O)Nc4cccc(F)c4)[nH]n3)ncnc2c1)CCOP(=O)(O)O [barasertib]
How it was run: as §1

[12] = compound: CC(C)(O)CC(=O)NCCn1ccc2ncnc(Nc3ccc(Oc4cccc(C(F)(F)F)c4)c(Cl)c3)c21
How it was run: as §1

[13] = compound: CC1=C(C=C(C=C1)NC(=O)C2=CC(=CC=C2)C(C)(C)C#N)NC3=CC4=C(C=C3)N=CN(C4=O)C
How it was run: as §1

[14] = compound: CCCCN(Cc1ccc(C(=O)NO)cc1)C(=O)Nc1ccccc1 [Nexturastat A]
How it was run: as §1

[15] = compound: CC(C)(C)Cn1c(N)nc2ccc(-c3[nH]c(C(C)(C)C)nc3-c3ccc(F)cc3)nc21 [ralimetinib]
How it was run: as §1

[16] = compound: CC(C)C[C@@H](C=O)NC(=O)[C@H](CC(C)C)NC(=O)[C@H](CC(C)C)NC(=O)OCc1ccccc1
How it was run: as §1

[17] = compound: CC1=C(C=C(C=C1)NC(=O)C2=CC(=CC=C2)N(C)C)NC(=O)C3=CC=C(C=C3)O
How it was run: as §1

[18] = compound: C1COCCN1CCN2C3=CC=CC=C3N=C2NC(=O)C4=CC(=CC=C4)[N+](=O)[O-] [IRAK-1-4 Inhibitor I]
How it was run: as §1

[19] = compound: CC(C)N(C[C@H]1O[C@@H](n2cnc3c(N)ncnc32)[C@H](O)[C@@H]1O)[C@H]1C[C@@H](CCc2nc3cc(C(C)(C)C)ccc3[nH]2)C1 [pinometostat]
How it was run: as §1

[20] = compound: CC1=NC(=CC=C1)C2=C(N=C(N2)C(C)(C)C)C3=CC4=NC=CN=C4C=C3
How it was run: as §1

Measured: log2 fold change

S100A2 (UniProt P29034)
inactive: [1] 0.181 | [2] 0.006 | [3] 0.113 | [4] -0.76 | [5] 0.115 | [6] 0.096 | [7] 0.059 | [8] 0 | [9] 0.081 | [10] 0.655 | [11] 0.388

SARAF (UniProt Q96BY9)
inactive: [1] -0.071 | [2] 0.08 | [12] 0 | [5] -0.275 | [13] -0.141 | [6] -0.111 | [14] 0.291 | [7] -0.1 | [8] -0.072 | [11] 0.224

SCGB2A1 (UniProt O75556)
inactive: [1] 0.048 | [4] -0.251 | [9] -0.095 | [11] 0.408

RTN4, A0A0U1RQR6
inactive: [12] 0.076 | [14] 0.271

SCN4A (UniProt P35499)
inactive: [2] -0.129 | [9] -0.1

SCAF1 (UniProt Q9H7N4)
inactive: [13] 0.004

RUBCN (UniProt Q92622)
inactive: [15] 0.097 | [16] 0.119 | [17] -0.013 | [7] -0.32

SCRIB isoform 3 (UniProt Q14160)
inactive: [18] -0.316 | [15] 0.107 | [3] -0.162 | [16] 0.025 | [19] 0.346 | [5] 0.029 | [17] -0.082 | [20] -0.19 | [9] 0.375 | [10] 0.076

RWDD3 (UniProt Q9Y3V2)
inactive: [13] 0.012

SC5D (UniProt O75845)
inactive: [1] 0.068 | [2] 0.064 | [15] 0.067 | [12] 0.014 | [3] 0.047 | [16] -0.01 | [4] 0.032 | [5] 0.154 | [13] -0.04 | [17] -0.014 | [6] 0.036 | [14] 0.043 | [7] 0.007 | [8] -0.053 | [9] 0 | [10] -0.04 | [11] -0.003

SCAMP2 (UniProt O15127)
inactive: [1] 0.09 | [2] 0.08 | [15] -0.019 | [12] 0.013 | [3] 0.003 | [16] 0.036 | [5] -0.066 | [13] -0.032 | [17] -0.032 | [6] 0.046 | [14] -0.061 | [7] 0.081 | [8] 0.043 | [9] 0.013 | [10] -0.085 | [11] -0.029

SCOC (UniProt Q9UIL1)
inactive: [15] 0.037 | [16] 0.056 | [17] -0.116

RXYLT1 (UniProt Q9Y2B1)
inactive: [3] 0.215 | [4] -0.154 | [6] 0.012 | [8] -0.19 | [10] -0.173

Two neighbouring records already listed, quoted:
SC5D (UniProt O75845)
inactive: [1] 0.068 | [2] 0.064 | [15] 0.067 | [12] 0.014 | [3] 0.047 | [16] -0.01 | [4] 0.032 | [5] 0.154 | [13] -0.04 | [17] -0.014 | [6] 0.036 | [14] 0.043 | [7] 0.007 | [8] -0.053 | [9] 0 | [10] -0.04 | [11] -0.003

SCAMP2 (UniProt O15127)
inactive: [1] 0.09 | [2] 0.08 | [15] -0.019 | [12] 0.013 | [3] 0.003 | [16] 0.036 | [5] -0.066 | [13] -0.032 | [17] -0.032 | [6] 0.046 | [14] -0.061 | [7] 0.081 | [8] 0.043 | [9] 0.013 | [10] -0.085 | [11] -0.029

(list continues)

SAV1 (UniProt Q9H4B6)
inactive: [5] -0.022

SDR39U1 (UniProt Q9NRG7)
inactive: [1] 0.437 | [2] 0.01 | [12] -0.001 | [3] -0.707 | [4] -0.163 | [5] 0.094 | [13] 0.894 | [6] 0.532 | [14] -0.038 | [7] 0.206 | [8] -0.153 | [9] 0.755 | [10] 0.232 | [11] -0.097

SDCBP isoform 2 (UniProt O00560)
inactive: [1] 0 | [15] 0.06 | [12] 0.008 | [3] -0.444 | [16] 0.13 | [5] 0.033 | [13] 0.06 | [17] -0.058 | [6] 0.004 | [14] 0.149 | [8] 0.076 | [9] -0.048 | [10] -0.008 | [11] 0.046
